Test results as given in the supplement of paper PMC10849652.
This is one part of the list.

By UniProt entry, the sequences of proteins in these tests, tags left out. Where a name states a change or a piece, a line headed by the entry shows the natural chain unless it says otherwise.
UniProt O96017, whole entry, looked up: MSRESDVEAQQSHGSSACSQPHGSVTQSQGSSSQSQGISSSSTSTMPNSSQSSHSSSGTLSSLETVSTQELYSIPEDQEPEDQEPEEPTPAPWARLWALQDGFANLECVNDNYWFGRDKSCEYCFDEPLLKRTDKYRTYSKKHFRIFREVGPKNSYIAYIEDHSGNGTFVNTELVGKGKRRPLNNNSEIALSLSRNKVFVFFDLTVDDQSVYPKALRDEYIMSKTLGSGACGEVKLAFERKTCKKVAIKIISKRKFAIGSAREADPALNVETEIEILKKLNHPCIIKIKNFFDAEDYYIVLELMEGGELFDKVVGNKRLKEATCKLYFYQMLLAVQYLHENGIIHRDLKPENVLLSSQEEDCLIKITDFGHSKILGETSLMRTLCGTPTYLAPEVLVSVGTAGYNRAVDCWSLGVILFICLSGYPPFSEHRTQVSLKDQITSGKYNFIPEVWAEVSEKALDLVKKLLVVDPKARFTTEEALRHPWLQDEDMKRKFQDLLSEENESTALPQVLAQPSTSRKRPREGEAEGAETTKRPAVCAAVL
UniProt P23528, whole entry, looked up: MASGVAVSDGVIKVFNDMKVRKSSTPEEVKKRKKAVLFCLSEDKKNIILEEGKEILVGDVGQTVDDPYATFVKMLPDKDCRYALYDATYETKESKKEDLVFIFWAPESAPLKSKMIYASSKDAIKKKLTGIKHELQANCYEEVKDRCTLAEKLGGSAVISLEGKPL
UniProt O95674: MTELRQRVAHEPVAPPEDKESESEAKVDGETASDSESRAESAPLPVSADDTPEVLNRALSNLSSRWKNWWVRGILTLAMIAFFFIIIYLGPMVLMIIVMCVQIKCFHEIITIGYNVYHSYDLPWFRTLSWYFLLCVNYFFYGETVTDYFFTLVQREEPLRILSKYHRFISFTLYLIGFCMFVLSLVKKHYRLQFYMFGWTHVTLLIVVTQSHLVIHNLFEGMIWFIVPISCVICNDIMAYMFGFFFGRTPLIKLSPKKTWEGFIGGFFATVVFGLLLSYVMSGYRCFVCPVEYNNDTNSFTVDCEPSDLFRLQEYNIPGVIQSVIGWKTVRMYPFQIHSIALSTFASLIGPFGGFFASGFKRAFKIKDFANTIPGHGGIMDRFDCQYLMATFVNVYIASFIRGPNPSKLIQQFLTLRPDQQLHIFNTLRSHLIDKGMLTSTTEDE
UniProt Q5VT25: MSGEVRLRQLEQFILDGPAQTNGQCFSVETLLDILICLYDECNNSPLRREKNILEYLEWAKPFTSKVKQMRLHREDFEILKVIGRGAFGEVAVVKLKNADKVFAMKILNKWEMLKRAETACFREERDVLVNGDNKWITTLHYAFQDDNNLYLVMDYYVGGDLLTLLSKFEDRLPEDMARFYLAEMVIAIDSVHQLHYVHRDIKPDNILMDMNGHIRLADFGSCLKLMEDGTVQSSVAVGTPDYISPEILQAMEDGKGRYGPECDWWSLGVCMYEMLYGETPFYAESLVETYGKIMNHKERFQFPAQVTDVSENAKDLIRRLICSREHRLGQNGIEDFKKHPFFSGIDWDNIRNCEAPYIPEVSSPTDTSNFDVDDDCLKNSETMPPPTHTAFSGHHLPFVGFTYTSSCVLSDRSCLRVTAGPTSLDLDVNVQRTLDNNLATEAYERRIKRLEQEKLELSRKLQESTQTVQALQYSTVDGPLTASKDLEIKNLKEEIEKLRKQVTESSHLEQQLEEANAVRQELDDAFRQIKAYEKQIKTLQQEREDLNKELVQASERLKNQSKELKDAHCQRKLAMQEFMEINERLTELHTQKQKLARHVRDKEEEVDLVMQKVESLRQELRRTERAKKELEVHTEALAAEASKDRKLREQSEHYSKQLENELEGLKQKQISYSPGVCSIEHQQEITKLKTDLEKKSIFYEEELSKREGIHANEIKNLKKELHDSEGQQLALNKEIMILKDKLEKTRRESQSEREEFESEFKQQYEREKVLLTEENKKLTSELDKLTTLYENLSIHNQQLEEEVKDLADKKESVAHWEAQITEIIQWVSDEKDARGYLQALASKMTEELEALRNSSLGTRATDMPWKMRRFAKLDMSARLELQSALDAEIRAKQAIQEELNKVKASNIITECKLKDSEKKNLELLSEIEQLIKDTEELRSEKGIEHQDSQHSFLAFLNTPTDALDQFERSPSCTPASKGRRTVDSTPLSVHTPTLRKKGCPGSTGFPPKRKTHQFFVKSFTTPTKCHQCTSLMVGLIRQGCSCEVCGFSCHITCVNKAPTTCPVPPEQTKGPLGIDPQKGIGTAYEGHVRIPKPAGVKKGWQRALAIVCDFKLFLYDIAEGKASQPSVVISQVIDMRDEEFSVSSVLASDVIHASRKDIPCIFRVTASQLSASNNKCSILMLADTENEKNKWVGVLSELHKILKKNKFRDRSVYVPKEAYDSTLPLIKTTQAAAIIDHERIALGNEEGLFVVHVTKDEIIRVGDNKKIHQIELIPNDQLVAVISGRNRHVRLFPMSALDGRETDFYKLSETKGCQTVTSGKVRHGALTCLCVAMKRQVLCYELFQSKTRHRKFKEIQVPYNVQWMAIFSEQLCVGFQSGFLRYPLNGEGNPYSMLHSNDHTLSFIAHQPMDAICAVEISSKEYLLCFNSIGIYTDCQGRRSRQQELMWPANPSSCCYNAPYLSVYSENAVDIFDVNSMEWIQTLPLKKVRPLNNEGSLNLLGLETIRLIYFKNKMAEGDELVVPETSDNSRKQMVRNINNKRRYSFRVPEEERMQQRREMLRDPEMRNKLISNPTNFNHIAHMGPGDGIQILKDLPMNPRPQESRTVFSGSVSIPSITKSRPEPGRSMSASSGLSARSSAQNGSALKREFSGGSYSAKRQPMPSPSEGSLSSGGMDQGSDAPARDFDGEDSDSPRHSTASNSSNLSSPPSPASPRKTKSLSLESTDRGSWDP
UniProt Q9Y6K0: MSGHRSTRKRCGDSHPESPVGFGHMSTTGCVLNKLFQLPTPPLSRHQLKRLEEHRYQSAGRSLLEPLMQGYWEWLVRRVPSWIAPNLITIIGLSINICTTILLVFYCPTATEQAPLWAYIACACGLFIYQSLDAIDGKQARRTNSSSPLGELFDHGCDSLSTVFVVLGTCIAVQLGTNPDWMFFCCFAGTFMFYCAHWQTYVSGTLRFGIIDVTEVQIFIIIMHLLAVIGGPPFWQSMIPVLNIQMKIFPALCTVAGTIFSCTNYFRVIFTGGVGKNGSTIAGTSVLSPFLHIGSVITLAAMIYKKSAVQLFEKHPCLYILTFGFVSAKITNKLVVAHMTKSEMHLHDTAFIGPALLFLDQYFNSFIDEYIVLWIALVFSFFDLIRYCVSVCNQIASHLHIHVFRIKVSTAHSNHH
UniProt Q9UFW8: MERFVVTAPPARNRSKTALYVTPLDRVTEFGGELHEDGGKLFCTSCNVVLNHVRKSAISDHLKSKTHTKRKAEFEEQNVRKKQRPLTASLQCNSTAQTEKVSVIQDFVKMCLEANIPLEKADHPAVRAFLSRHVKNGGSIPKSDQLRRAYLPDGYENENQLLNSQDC
UniProt Q96SZ6: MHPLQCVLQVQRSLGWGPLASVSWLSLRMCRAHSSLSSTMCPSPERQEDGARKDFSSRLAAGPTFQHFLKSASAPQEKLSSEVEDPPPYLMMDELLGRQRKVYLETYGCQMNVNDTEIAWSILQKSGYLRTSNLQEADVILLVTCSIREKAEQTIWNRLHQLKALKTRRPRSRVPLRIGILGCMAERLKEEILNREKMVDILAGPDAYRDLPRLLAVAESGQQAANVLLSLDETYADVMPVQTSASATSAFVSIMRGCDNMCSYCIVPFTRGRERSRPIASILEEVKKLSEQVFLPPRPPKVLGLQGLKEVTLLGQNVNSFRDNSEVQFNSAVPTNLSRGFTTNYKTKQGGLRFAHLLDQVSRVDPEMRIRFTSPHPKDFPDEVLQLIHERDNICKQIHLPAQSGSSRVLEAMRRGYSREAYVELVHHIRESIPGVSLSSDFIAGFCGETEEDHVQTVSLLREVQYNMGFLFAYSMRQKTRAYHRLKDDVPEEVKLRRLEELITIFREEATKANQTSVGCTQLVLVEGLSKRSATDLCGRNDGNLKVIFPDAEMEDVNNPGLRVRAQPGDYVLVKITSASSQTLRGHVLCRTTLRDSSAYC
UniProt Q96G23: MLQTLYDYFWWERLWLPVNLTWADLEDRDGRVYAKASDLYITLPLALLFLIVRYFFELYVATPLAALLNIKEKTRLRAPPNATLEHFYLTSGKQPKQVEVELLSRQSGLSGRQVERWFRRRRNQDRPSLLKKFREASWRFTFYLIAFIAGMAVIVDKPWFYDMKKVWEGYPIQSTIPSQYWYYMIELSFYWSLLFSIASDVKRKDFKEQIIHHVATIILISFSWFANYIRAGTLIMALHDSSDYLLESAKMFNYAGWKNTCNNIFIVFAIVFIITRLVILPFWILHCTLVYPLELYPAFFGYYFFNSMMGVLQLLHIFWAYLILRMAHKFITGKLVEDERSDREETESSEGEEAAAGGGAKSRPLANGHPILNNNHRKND
UniProt Q00536: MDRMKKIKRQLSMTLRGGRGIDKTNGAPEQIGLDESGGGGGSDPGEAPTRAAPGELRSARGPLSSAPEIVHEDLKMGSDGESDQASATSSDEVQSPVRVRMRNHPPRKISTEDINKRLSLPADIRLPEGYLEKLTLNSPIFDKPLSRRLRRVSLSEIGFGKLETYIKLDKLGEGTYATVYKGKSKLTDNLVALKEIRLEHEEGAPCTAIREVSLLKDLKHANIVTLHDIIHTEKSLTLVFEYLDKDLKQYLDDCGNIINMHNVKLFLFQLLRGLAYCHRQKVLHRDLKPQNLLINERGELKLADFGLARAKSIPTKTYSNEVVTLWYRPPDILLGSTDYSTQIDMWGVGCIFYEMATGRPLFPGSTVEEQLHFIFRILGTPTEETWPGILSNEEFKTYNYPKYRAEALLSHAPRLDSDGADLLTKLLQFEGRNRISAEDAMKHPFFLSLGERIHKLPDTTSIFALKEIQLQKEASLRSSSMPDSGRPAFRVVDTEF
UniProt Q96FF9: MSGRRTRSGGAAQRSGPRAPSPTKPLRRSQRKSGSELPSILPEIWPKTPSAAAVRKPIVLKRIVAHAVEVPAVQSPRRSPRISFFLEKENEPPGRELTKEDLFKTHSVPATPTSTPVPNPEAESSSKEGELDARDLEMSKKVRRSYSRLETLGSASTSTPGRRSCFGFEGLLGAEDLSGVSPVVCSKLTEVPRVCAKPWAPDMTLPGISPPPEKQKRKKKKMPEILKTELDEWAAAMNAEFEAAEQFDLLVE
UniProt Q96CF2: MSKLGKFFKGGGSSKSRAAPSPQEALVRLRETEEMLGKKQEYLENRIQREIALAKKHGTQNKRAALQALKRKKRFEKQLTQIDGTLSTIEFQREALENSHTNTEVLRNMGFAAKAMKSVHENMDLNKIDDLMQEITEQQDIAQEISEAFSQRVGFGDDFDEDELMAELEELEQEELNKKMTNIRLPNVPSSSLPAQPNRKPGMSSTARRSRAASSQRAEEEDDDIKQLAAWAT
UniProt O95319: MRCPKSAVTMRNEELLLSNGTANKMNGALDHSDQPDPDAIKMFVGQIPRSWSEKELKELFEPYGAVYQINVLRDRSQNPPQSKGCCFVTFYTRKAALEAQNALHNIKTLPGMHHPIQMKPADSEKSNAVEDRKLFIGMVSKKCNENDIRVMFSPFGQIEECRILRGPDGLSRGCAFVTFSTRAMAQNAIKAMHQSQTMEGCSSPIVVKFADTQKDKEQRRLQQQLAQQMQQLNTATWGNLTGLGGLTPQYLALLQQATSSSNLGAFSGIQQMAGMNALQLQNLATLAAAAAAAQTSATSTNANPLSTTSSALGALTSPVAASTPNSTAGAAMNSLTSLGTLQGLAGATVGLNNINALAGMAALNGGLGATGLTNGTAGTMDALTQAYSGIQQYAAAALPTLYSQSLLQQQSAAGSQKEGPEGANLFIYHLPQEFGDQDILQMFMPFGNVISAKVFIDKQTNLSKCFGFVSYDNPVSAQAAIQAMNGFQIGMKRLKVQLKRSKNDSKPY
UniProt Q8N5B7: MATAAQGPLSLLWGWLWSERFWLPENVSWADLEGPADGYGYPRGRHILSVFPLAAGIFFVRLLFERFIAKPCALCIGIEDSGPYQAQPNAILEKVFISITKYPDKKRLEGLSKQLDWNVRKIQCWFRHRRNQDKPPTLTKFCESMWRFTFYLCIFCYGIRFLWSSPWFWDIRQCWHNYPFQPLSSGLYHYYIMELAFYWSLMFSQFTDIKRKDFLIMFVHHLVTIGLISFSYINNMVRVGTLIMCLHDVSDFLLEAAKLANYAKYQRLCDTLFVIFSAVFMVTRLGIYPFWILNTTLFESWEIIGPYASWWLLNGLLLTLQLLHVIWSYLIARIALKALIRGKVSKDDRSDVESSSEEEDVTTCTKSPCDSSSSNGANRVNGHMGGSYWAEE
UniProt Q99618: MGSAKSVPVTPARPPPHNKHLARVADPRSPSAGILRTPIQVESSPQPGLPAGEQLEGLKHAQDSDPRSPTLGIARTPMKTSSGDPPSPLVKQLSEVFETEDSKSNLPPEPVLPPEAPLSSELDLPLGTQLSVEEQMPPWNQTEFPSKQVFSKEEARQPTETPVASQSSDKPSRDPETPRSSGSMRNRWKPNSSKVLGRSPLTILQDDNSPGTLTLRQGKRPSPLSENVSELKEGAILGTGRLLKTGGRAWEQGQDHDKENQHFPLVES

Each target was assayed with Nc1ccccc1NC(=O)c1ccc(CNC(=O)OCc2cccnc2)cc1 [entinostat] (assay: log2 fold change, soluble protein after heating vs DMSO (PISA); higher = thermal stabilisation; K562 cells, 10 uM, 30 min; active = over 0.2 and 3.5 SD of the protein, either way, in both replicates (recomputed)).
Outline: (§1)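 Thermal stability values are relative to control samples and come from duplicates. They are expressed as log2 fold changes. For measurement, K562 cells (2×10^6 cells/mL) received 10 μM compound for 30 min, and aliquots were heated for 3 min over 48°C-58°C, pooled, and extracted at 4°C in PBS with 0.5% NP-40. Soluble protein, the supernatant after 21,000xg for 90 min, was quantified by TMTpro 16plex LC-MS/MS with equalised channel sums.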
CHEK2 isoform 9 (UniProt O96017) was tested, and the log2 fold change was inactive: 0.041. With CFL1 (UniProt P23528) the log2 fold change was inactive: 0.069. For CDCP1 (UniProt Q9H5V8), the log2 fold change was inactive: -0.152. For CDS2 (UniProt O95674), the log2 fold change was inactive: 0.01. CDC42BPA isoform 6 (UniProt Q5VT25) was tested, and the log2 fold change was inactive: 0.012. In the case of CEPT1 (UniProt Q9Y6K0), the log2 fold change is reported as inactive: 0.065. In the case of CHAMP1 (UniProt Q96JM3), the log2 fold change is reported as inactive: 0.001. CGGBP1 (UniProt Q9UFW8) was tested, and the log2 fold change was inactive: -0.007. With CDK5RAP1 (UniProt Q96SZ6) the log2 fold change was inactive: -0.008. With CERS2 (UniProt Q96G23) the log2 fold change was inactive: 0.04. CDK16 isoform 2 (UniProt Q00536) was tested, and the log2 fold change was inactive: -0.041. For CDCA5 (UniProt Q96FF9), the log2 fold change was inactive: 0.069. With CHMP4C (UniProt Q96CF2) the log2 fold change was inactive: 0.041. CELF2 isoform 3 (UniProt O95319) was tested, and the log2 fold change was inactive: -0.048. In the case of CERS5 (UniProt Q8N5B7), the log2 fold change is reported as inactive: 0.074. CDCA3 (UniProt Q99618) was tested, and the log2 fold change was inactive: -0.008.

The targets below were run with O=C(CCCCCCC(=O)Nc1ccccc1)NO [vorinostat] in the same assay as above.
Outline: as §1
CHIC2 (UniProt Q9UKJ5) was tested, and the log2 fold change was inactive: -0.041. CFDP1 (UniProt Q9UEE9) was tested, and the log2 fold change was inactive: -0.083. CHMP2A (UniProt O43633) was tested, and the log2 fold change was inactive: 0.009. CHD4 isoform 2 (UniProt Q14839) was tested, and the log2 fold change was inactive: 0.049. With CEP76 (UniProt Q8TAP6) the log2 fold change was inactive: -0.018. With CDK5RAP3 isoform 4 (UniProt Q96JB5) the log2 fold change was inactive: 0.04. In the case of CHKA (UniProt P35790), the log2 fold change is reported as inactive: -0.034. With CDC73 (UniProt Q6P1J9) the log2 fold change was inactive: -0.213. For CHCHD3 (UniProt Q9NX63), the log2 fold change was inactive: -0.049. In the case of CDKAL1 (UniProt Q5VV42), the log2 fold change is reported as inactive: -0.112. CDK13 (UniProt Q14004) was tested, and the log2 fold change was inactive: 0.018. In the case of CFAP20 (UniProt Q9Y6A4), the log2 fold change is reported as inactive: 0.017. In the case of CHD6 (UniProt Q8TD26), the log2 fold change is reported as inactive: 0.174. For CHMP4A isoform 2 (UniProt Q9BY43), the log2 fold change was inactive: -0.02. CHMP4B (UniProt Q9H444) was tested, and the log2 fold change was inactive: 0.024. With CDK11B (UniProt P21127) the log2 fold change was inactive: 0.064. For CHMP3 (UniProt Q9Y3E7), the log2 fold change was inactive: 0.018. For CFAP298 (UniProt P57076), the log2 fold change was inactive: -0.018. For CETN2 (UniProt P41208), the log2 fold change was inactive: -0.122. CHAC2 (UniProt Q8WUX2) was tested, and the log2 fold change was inactive: -0.016. With CETN3 (UniProt O15182) the log2 fold change was inactive: -0.126. With CHD3 isoform 3 (UniProt Q12873) the log2 fold change was inactive: 0.101. With CFL2 (UniProt Q9Y281) the log2 fold change was inactive: 0.016. For CHEK2 isoform 9 (UniProt O96017), the log2 fold change was inactive: -0.004. For CFL1 (UniProt P23528), the log2 fold change was inactive: -0.037. In the case of CDCP1 (UniProt Q9H5V8), the log2 fold change is reported as inactive: -0.041. CDS2 (UniProt O95674) was tested, and the log2 fold change was inactive: 0.017. CDC42BPA isoform 6 (UniProt Q5VT25) was tested, and the log2 fold change was inactive: 0.051. In the case of CEPT1 (UniProt Q9Y6K0), the log2 fold change is reported as inactive: -0.078. For CHAMP1 (UniProt Q96JM3), the log2 fold change was inactive: 0.137. CGGBP1 (UniProt Q9UFW8) was tested, and the log2 fold change was inactive: 0.008. CDK5RAP1 (UniProt Q96SZ6) was tested, and the log2 fold change was inactive: -0.089. For CERS2 (UniProt Q96G23), the log2 fold change was inactive: 0.057. In the case of CDK16 isoform 2 (UniProt Q00536), the log2 fold change is reported as inactive: -0.044. In the case of CDCA5 (UniProt Q96FF9), the log2 fold change is reported as inactive: 0.017. For CHMP4C (UniProt Q96CF2), the log2 fold change was inactive: 0.02. In the case of CELF2 isoform 3 (UniProt O95319), the log2 fold change is reported as inactive: -0.044. CERS5 (UniProt Q8N5B7) was tested, and the log2 fold change was inactive: 0.006. CDCA3 (UniProt Q99618) was tested, and the log2 fold change was inactive: -0.054.

The targets below were run with O=C(CCCCCCNC(=O)c1cnc(N(c2ccccc2)c2ccccc2Cl)nc1)NO [citarinostat] in the same assay as above.
Outline: as §1
CHIC2 (UniProt Q9UKJ5) was tested, and the log2 fold change was inactive: 0.044. With CFDP1 (UniProt Q9UEE9) the log2 fold change was inactive: 0.017. With CHMP2A (UniProt O43633) the log2 fold change was inactive: 0.08. For CHD4 isoform 2 (UniProt Q14839), the log2 fold change was inactive: 0.063. For CEP76 (UniProt Q8TAP6), the log2 fold change was inactive: -0.002. For CDK5RAP3 isoform 4 (UniProt Q96JB5), the log2 fold change was inactive: 0.065. For CHKA (UniProt P35790), the log2 fold change was inactive: -0.055. With CDC73 (UniProt Q6P1J9) the log2 fold change was inactive: -0.219. For CHCHD3 (UniProt Q9NX63), the log2 fold change was inactive: -0.034. For CDKAL1 (UniProt Q5VV42), the log2 fold change was inactive: 0.043. With CDK13 (UniProt Q14004) the log2 fold change was inactive: 0.013. For CFAP20 (UniProt Q9Y6A4), the log2 fold change was inactive: 0.032. With CHD6 (UniProt Q8TD26) the log2 fold change was inactive: 0.046. CHMP4A isoform 2 (UniProt Q9BY43) was tested, and the log2 fold change was inactive: -0.032. With CHMP4B (UniProt Q9H444) the log2 fold change was inactive: -0.044. With CDK11B (UniProt P21127) the log2 fold change was inactive: -0.047. In the case of CHMP3 (UniProt Q9Y3E7), the log2 fold change is reported as inactive: 0.098. For CFAP298 (UniProt P57076), the log2 fold change was inactive: -0.043. CETN2 (UniProt P41208) was tested, and the log2 fold change was inactive: -0.1. With CHAC2 (UniProt Q8WUX2) the log2 fold change was inactive: -0.232. In the case of CETN3 (UniProt O15182), the log2 fold change is reported as inactive: -0.002. CHD3 isoform 3 (UniProt Q12873) was tested, and the log2 fold change was inactive: 0.057. In the case of CFL2 (UniProt Q9Y281), the log2 fold change is reported as inactive: -0.107. CHEK2 isoform 9 (UniProt O96017) was tested, and the log2 fold change was inactive: 0.045. In the case of CFL1 (UniProt P23528), the log2 fold change is reported as inactive: 0.017. In the case of CDCP1 (UniProt Q9H5V8), the log2 fold change is reported as inactive: -0.056. In the case of CDS2 (UniProt O95674), the log2 fold change is reported as inactive: 0.02. CDC42BPA isoform 6 (UniProt Q5VT25) was tested, and the log2 fold change was inactive: 0.115. For CEPT1 (UniProt Q9Y6K0), the log2 fold change was inactive: -0.023. CHAMP1 (UniProt Q96JM3) was tested, and the log2 fold change was inactive: -0.007. CGGBP1 (UniProt Q9UFW8) was tested, and the log2 fold change was inactive: 0.059. In the case of CDK5RAP1 (UniProt Q96SZ6), the log2 fold change is reported as inactive: -0.055. With CERS2 (UniProt Q96G23) the log2 fold change was inactive: 0.035. For CDK16 isoform 2 (UniProt Q00536), the log2 fold change was inactive: 0.061. With CDCA5 (UniProt Q96FF9) the log2 fold change was inactive: 0.031. CHMP4C (UniProt Q96CF2) was tested, and the log2 fold change was inactive: -0.138. With CELF2 isoform 3 (UniProt O95319) the log2 fold change was inactive: 0. CERS5 (UniProt Q8N5B7) was tested, and the log2 fold change was inactive: -0.058. In the case of CDCA3 (UniProt Q99618), the log2 fold change is reported as inactive: 0.007.
